Source: PubChem BioAssay AID1259308 (NCATS, 2017)
Here is a random part of about 59,000 deposited reagents. About 1,510 of them (2.6%) were called active. 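Calls use total luciferase alone and ignore viability, so some active siRNAs may act by altering cell number.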 A number with no mark means an inactive call. The numbers tell different reagents against one gene apart.

Screen: 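Knock-downs that increase output of a recombinant reporter protein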 (primary screen)
Cells: human HEK293 embryonic kidney cells stably expressing firefly luciferase (HEK-CMV-Luc2-Hygro)
Reagents: single siRNA against human genes, 0.8 pmol siRNA per well
Timing: 72 h
Measured: 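Luciferase light (ONE-Glo) measured on one replicate plate set and viability (CellTiter-Glo) on the other, scaled to a negative control siRNA, with robust z-scores and luciferase per cell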
Direction: total luciferase, z-score and total luciferase, % of control: higher = more reporter protein produced; luciferase per cell, z-score: higher = more reporter output per viable cell; viable cells, % of control: higher = more viable cells
Active means: 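An siRNA counts as active if its total luciferase robust z-score exceeds 3; genes with two or more such siRNAs out of three were retested with fresh siRNAs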
Calls: active = raised luciferase; inactive = no rise

Gene	reagent	total luciferase, z-score	total luciferase, % of control	luciferase per cell, z-score	viable cells, % of control
SLC52A2	1	1.62	114	0.704	106
SLC52A2	2	-1.11	59.8	-0.776	82
SLC52A2	3	0.464	91.1	0.318	93.6
RHOU (ras homolog family member U)	1	-2.01	41.8	-2.04	79.9
RHOU (ras homolog family member U)	2	0.395	89.8	0.648	84.6
RHOU (ras homolog family member U)	3	0.654	94.9	1.2	77.2
OR5B12 (olfactory receptor family 5 subfamily B member 12)	1	-1.74	47.4	-0.484	60.1
OR5B12 (olfactory receptor family 5 subfamily B member 12)	2	1.7	116	1.15	95.4
OR5B12 (olfactory receptor family 5 subfamily B member 12)	3	0.295	87.7	0.313	90.3
GAN (gigaxonin)	1	0.652	94.9	0.0275	105
GAN (gigaxonin)	2	1.14	104	1.19	85.2
GAN (gigaxonin)	3	0.201	85.9	-0.357	105
SENP5 (SUMO specific peptidase 5)	1	-0.793	66.1	-0.864	92.8
SENP5 (SUMO specific peptidase 5)	2	-0.298	76	-1.15	115
SENP5 (SUMO specific peptidase 5)	3	0.223	86.3	-0.771	118
SCML2 (Scm polycomb group protein like 2)	1	0.0178	82.2	0.365	83.5
SCML2 (Scm polycomb group protein like 2)	2	-0.561	70.7	-0.667	94.2
SCML2 (Scm polycomb group protein like 2)	3	-0.00705	81.7	1.25	65.8
SCUBE3 (signal peptide, CUB domain and EGF like domain containing 3)	1	0.556	92.9	0.81	83.9
SCUBE3 (signal peptide, CUB domain and EGF like domain containing 3)	2	0.149	84.9	-0.0276	95.5
SCUBE3 (signal peptide, CUB domain and EGF like domain containing 3)	3	0.588	93.6	1.25	75.3
EPHX4 (epoxide hydrolase 4)	1	1.33	108	1.05	91.7
EPHX4 (epoxide hydrolase 4)	2	-0.33	75.3	-0.596	98.5
EPHX4 (epoxide hydrolase 4)	3	-0.708	67.8	-0.596	88.6

A few values from above.
Value of RHOU (ras homolog family member U) #3 in “total luciferase, % of control”: 94.9
Entry of SCML2 (Scm polycomb group protein like 2) #2 in “total luciferase, z-score”: -0.561
